The source of these data is article PMC7956269.

Results are given in words; binding and its absence hold for the method and conditions named. In cells and extracts the contact can be indirect. Some entries that bind do so weakly or less than the wild type. Where a sequence is shown, tags or fusion partners need not be part of it.

This assay has as its target 3*Flag-FOXC1 (mouse) (UniProt Q61572). The assay can be described thus: co-IP; HEK293T cells co-transfected; lysate in Pierce IP Lysis Buffer; anti-Flag antibody (IgG as control), protein A/G agarose, 4 °C; blots with anti-GFP and anti-HA.

B1: HA-UHRF1 (protein, UniProt Q8VDF2 1-782)
chain: MWIQVRTMDGKETHTVNSLSRLTKVQELRKKIEEVFHVEPQLQRLFYRGKQMEDGHTLFDYDVRLNDTIQLLVRQSLALPLSTKERDSELSDSDSGYGVGHSESDKSSTHGEGAAEADDKTVWEDTDLGLYKVNEYVDVRDNIFGAWFEAQVVQVQKRALSEDEPCSSSAVKTSEDDIMYHVKYDDYPEHGVDIVKAKNVRARARTVIPWENLEVGQVVMANYNVDYPRKRGFWYDVEICRKRQTRTARELYGNIRLLNDSQLNNCRIMFVDEVLMIELPKERRPLIASPSQPPPALRNTGKSGPSCRFCKDDENKPCRKCACHVCGGREAPEKQLLCDECDMAFHLYCLKPPLTSVPPEPEWYCPSCRTDSSEVVQAGEKLKESKKKAKMASATSSSRRDWGKGMACVGRTTECTIVPANHFGPIPGVPVGTMWRFRVQVSESGVHRPHVAGIHGRSNDGAYSLVLAGGYEDDVDNGNYFTYTGSGGRDLSGNKRTAGQSSDQKLTNNNRALALNCHSPINEKGAEAEDWRQGKPVRVVRNMKGGKHSKYAPAEGNRYDGIYKVVKYWPERGKSGFLVWRYLLRRDDTEPEPWTREGKDRTRQLGLTMQYPEGYLEALANKEKSRKRPAKALEQGPSSSKTGKSKQKSTGPTLSSPRASKKSKLEPYTLSEQQANLIKEDKGNAKLWDDVLTSLQDGPYQIFLSKVKEAFQCICCQELVFRPVTTVCQHNVCKDCLDRSFRAQVFSCPACRFELDHSSPTRVNQPLQTILNQLFPGYGSGR
With B1, the binding entry was “binds”.
